The other results are listed elsewhere or left out. The data scatter; read single values as rough.
Compound: ClCC(=O)N[C@H]1CCCc2ccccc12
Assay: log2 mean competition ratio of IA-DTB cysteine labelling (DMSO/compound) (log2 ratio); higher = stronger cysteine engagement by compound
Conditions: 50 µM; treatment time: 4 h; cell line lysate: HEK293T
Procedure: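 IA-DTB competitive cysteine chemoproteomics in HEK293T RIPA lysate. Lysates were treated with compound 29 or 30 at 50 or 200 µM for 4 h, then IA-DTB (500 µM, 1 h), trypsin-digested, NeutrAvidin-enriched and analysed by diaPASEF. Competition ratio = intensity DMSO / intensity compound (n=4 treated, n=64 DMSO); binding: mean log2 CR ≥ 1 and p ≤ 0.05 plus QC filters. Target is the cysteine site.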

Chains of the proteins cited; added tags and fusions are not shown. Lines headed by an entry give the natural chain unless they say otherwise; changes in a name come on top. Residues count along the entry.
UniProt P78527, whole entry, looked up: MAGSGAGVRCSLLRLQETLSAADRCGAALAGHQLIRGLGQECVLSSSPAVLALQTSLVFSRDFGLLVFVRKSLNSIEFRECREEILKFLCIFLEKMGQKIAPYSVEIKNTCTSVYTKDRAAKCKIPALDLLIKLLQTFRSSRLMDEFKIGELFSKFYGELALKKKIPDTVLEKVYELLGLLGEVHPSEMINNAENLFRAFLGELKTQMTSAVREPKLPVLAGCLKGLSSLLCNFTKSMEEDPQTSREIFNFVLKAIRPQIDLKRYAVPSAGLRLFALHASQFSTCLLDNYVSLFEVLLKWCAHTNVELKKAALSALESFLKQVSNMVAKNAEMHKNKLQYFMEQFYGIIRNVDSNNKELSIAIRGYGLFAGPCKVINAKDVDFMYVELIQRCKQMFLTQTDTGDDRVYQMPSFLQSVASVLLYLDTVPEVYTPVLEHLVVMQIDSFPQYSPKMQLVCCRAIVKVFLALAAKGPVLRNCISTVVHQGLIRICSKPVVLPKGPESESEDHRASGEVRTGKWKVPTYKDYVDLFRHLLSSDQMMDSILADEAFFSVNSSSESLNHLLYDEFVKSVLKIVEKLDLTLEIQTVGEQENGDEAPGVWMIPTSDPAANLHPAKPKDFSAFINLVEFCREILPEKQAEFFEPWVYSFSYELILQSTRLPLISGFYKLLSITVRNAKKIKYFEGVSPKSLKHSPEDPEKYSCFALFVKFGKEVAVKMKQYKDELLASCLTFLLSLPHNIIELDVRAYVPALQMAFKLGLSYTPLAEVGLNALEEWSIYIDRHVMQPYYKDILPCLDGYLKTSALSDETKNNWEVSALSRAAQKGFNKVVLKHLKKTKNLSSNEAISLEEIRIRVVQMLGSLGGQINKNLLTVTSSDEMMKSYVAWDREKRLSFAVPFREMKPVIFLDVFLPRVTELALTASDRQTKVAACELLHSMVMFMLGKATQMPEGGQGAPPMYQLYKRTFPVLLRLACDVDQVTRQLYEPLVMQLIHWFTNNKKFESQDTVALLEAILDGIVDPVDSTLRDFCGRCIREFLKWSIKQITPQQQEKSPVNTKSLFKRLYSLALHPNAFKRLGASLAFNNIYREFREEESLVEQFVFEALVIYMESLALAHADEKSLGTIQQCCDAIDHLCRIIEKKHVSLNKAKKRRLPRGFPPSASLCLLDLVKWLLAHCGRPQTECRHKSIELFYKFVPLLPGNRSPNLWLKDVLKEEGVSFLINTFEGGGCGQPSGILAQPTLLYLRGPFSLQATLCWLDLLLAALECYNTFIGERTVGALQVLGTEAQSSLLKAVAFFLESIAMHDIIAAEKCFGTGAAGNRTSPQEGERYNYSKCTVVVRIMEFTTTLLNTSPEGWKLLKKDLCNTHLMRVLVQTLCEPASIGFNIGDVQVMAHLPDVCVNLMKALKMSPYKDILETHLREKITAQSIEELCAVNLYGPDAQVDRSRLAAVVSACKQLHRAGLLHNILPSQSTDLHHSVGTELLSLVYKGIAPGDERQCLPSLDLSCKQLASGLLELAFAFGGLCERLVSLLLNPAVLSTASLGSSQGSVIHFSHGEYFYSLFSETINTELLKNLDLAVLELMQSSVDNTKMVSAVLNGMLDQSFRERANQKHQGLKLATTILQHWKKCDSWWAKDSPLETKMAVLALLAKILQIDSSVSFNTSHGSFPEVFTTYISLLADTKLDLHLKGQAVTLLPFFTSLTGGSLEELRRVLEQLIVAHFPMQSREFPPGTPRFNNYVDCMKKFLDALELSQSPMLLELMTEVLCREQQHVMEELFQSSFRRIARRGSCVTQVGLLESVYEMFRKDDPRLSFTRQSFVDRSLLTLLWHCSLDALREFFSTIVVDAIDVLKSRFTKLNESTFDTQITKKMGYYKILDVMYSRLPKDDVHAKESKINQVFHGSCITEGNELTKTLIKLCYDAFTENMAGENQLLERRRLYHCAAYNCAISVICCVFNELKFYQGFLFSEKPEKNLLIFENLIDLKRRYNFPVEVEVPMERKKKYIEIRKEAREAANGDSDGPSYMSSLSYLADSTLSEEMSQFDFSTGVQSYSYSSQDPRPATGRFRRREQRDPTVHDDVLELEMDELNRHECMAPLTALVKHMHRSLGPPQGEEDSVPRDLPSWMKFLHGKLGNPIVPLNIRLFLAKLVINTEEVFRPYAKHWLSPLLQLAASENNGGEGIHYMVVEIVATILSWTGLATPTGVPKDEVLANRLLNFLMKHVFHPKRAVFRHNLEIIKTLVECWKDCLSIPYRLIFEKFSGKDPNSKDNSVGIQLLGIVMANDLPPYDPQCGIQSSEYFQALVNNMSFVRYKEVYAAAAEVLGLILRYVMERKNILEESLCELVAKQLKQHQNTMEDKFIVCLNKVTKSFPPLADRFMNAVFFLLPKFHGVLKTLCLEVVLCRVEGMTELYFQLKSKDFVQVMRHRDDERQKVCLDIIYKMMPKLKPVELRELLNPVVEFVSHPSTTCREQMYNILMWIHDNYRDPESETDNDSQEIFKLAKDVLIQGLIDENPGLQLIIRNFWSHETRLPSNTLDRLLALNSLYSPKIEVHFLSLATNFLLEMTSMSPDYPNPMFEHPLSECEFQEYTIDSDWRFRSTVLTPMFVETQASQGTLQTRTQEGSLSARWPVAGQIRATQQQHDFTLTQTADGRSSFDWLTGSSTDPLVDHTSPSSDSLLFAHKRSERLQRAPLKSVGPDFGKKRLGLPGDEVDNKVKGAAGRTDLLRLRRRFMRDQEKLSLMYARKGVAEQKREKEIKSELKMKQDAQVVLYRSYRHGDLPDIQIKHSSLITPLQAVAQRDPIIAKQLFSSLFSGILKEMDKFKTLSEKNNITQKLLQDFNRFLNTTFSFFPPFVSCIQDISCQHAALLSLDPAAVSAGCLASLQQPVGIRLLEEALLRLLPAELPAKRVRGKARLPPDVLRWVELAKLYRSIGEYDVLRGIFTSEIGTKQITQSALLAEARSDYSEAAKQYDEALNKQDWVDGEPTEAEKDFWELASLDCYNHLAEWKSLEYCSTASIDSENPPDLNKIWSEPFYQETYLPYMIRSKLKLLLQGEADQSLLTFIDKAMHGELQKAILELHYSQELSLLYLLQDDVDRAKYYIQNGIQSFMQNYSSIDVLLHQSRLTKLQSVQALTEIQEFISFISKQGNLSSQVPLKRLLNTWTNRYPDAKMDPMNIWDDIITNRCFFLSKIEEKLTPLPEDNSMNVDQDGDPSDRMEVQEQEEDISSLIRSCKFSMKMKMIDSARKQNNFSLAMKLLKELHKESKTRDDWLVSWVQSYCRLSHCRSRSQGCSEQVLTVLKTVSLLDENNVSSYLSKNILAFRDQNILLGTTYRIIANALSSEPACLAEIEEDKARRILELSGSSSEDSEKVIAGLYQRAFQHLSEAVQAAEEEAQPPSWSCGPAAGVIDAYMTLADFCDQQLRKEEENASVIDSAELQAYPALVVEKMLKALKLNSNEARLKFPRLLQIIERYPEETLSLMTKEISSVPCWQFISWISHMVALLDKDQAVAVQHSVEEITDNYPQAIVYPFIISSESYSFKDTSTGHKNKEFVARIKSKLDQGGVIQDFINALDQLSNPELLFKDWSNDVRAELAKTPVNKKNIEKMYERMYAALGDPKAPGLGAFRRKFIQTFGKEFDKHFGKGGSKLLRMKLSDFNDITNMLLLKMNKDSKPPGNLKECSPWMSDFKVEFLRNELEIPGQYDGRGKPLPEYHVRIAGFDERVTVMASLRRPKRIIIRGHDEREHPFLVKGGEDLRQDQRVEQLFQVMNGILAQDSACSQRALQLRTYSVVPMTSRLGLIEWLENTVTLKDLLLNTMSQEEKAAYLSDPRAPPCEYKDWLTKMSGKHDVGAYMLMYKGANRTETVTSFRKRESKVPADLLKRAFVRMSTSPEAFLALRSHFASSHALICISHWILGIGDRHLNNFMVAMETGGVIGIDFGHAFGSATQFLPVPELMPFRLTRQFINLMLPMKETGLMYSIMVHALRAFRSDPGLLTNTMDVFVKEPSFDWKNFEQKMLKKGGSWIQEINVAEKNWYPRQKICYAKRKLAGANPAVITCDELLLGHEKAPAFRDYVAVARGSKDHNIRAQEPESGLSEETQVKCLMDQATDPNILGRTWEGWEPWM
UniProt Q05655, 505-524: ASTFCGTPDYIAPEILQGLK
UniProt O15355: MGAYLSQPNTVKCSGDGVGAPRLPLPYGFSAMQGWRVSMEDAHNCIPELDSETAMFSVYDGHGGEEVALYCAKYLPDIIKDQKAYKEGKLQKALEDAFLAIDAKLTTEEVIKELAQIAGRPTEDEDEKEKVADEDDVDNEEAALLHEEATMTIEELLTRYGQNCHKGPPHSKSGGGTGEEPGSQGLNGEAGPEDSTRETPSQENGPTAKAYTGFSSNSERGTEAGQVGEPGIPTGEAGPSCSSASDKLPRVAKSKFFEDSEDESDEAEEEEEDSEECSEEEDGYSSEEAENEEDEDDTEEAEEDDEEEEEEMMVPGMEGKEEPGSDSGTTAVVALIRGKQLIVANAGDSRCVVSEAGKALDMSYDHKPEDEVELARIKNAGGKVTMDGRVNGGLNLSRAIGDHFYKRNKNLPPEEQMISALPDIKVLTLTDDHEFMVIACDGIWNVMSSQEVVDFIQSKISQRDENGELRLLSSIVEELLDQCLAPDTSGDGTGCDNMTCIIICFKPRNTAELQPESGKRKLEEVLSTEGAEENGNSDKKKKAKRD
UniProt Q96HA1, whole entry, looked up: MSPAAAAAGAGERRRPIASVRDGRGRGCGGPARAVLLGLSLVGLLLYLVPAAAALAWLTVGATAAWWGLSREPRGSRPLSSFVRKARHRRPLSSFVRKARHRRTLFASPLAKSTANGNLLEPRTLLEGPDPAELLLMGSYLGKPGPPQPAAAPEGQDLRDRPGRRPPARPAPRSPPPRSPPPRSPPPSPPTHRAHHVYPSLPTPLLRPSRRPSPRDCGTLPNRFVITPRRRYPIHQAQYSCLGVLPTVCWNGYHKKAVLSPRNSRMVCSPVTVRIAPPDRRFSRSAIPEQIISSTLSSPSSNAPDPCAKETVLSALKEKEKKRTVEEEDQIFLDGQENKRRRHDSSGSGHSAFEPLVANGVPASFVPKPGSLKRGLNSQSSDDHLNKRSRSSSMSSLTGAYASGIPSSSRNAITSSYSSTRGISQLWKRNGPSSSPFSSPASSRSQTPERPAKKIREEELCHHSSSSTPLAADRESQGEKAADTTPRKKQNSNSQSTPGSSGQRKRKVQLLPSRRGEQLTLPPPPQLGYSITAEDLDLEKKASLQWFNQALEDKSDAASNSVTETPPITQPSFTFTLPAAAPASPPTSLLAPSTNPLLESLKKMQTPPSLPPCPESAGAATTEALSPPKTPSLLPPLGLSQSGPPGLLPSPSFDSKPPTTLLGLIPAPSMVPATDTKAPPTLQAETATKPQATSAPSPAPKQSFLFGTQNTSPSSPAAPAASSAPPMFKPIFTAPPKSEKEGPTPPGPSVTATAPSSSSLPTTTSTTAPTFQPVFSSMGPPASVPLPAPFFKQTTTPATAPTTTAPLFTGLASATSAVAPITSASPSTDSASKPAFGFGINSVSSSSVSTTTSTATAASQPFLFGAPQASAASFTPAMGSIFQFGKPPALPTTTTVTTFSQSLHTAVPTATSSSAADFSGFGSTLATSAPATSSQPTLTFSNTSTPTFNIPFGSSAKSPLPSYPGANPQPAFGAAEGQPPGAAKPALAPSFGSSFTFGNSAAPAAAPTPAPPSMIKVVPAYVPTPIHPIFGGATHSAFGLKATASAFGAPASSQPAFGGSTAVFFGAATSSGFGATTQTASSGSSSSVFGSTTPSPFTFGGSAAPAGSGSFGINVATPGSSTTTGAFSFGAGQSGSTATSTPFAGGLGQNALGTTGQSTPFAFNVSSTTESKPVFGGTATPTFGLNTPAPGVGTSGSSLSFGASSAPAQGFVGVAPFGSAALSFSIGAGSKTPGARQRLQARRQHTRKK
UniProt Q96HA1, 285-309: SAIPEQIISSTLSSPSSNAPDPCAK
UniProt Q9H2U2: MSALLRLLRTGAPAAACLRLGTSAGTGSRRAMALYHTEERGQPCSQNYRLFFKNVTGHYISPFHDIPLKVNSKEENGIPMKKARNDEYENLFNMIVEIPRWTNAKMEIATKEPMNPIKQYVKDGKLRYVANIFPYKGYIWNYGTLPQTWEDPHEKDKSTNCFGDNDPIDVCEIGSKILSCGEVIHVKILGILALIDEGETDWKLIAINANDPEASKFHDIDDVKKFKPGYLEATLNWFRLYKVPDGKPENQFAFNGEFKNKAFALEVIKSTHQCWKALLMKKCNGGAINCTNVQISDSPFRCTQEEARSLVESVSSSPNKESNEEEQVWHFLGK
UniProt P23284: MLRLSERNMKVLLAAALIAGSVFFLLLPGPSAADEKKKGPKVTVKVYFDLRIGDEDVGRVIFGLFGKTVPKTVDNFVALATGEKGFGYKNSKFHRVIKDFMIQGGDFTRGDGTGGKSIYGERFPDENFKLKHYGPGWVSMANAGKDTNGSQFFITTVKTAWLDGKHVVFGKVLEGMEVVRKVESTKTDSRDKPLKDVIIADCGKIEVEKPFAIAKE
UniProt Q05513, 88-112: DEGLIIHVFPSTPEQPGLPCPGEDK

Question: Which “log2 mean competition ratio” value does the source give for PRKDC C2244 (UniProt P78527) here?
Answer: 0.322

Question: POP5 C146 (UniProt Q969H6) was tested. Which “log2 mean competition ratio” value did it give?
Answer: 0.0257

Question: Which “log2 mean competition ratio” value does the source give for PRPF38A C116 (UniProt Q8NAV1) here?
Answer: -0.0415

Question: How did the “log2 mean competition ratio” value turn out when PRKRA C106 (UniProt O75569) was run?
Answer: -0.45

Question: With PRMT6 C221 (UniProt Q96LA8) as the target, how does the “log2 mean competition ratio” value read?
Answer: 0.448

Question: How did the “log2 mean competition ratio” value turn out when PPIL2 C387 (UniProt Q13356) was run?
Answer: 0.0495

Question: With PRORP C367 (UniProt O15091) as the target, how does the “log2 mean competition ratio” value read?
Answer: 0.156

Question: With PRDM16 C771 as the target, how does the “log2 mean competition ratio” value read?
Answer: -0.394

Question: PRPF6 C339 (UniProt O94906) was tested. Which “log2 mean competition ratio” value did it give?
Answer: -0.247

Question: For PPP2R5A C359 (UniProt Q15172), which “log2 mean competition ratio” value is on record?
Answer: 0.0669

Question: For PRKCD C208 (UniProt Q05655), which “log2 mean competition ratio” value is on record?
Answer: -0.0793

Question: PPP4R1 C663 (UniProt Q8TF05) was tested. Which “log2 mean competition ratio” value did it give?
Answer: 0.361

Question: PRKDC C2435 (UniProt P78527) was tested. Which “log2 mean competition ratio” value did it give?
Answer: 0.314

Question: For POLR2A C154, which “log2 mean competition ratio” value is on record?
Answer: -0.0933

Question: POLR2G C38 (UniProt P62487) was tested. Which “log2 mean competition ratio” value did it give?
Answer: -0.305

Question: With PPM1G C351 (UniProt O15355) as the target, how does the “log2 mean competition ratio” value read?
Answer: 0.131

Question: PRR12 C417 (UniProt Q9ULL5) was tested. Which “log2 mean competition ratio” value did it give?
Answer: 0.185

Question: With PORCN C375 (UniProt Q9H237) as the target, how does the “log2 mean competition ratio” value read?
Answer: 0.532

Question: Which “log2 mean competition ratio” value does the source give for PPP6R2 C665 (UniProt O75170) here?
Answer: 0.179

Question: POM121 C268 (UniProt Q96HA1) was tested. Which “log2 mean competition ratio” value did it give?
Answer: 0.566

Question: Which “log2 mean competition ratio” value does the source give for PPM1L C340 (UniProt Q5SGD2) here?
Answer: -0.34

Question: How did the “log2 mean competition ratio” value turn out when PPIG C310 (UniProt Q13427) was run?
Answer: 0.0483

Question: For PPA2 C274 (UniProt Q9H2U2), which “log2 mean competition ratio” value is on record?
Answer: 0.348

Question: Which “log2 mean competition ratio” value does the source give for POLR3B C973 (UniProt Q9NW08) here?
Answer: -0.133

Question: For PRKDC C1742 (UniProt P78527), which “log2 mean competition ratio” value is on record?
Answer: -0.217

Question: How did the “log2 mean competition ratio” value turn out when POM121 C307 (UniProt Q96HA1) was run?
Answer: 0.0513

Question: Which “log2 mean competition ratio” value does the source give for POLR3A C1174 (UniProt O14802) here?
Answer: -0.552

Question: POLR2M C115 was tested. Which “log2 mean competition ratio” value did it give?
Answer: 0.764

Question: PPIB C202 (UniProt P23284) was tested. Which “log2 mean competition ratio” value did it give?
Answer: -0.366

Question: With POLR3E C350 (UniProt Q9NVU0) as the target, how does the “log2 mean competition ratio” value read?
Answer: 0.0139

Question: PRKCD C509 (UniProt Q05655) was tested. Which “log2 mean competition ratio” value did it give?
Answer: -0.0457

Question: With POLR2A C1245 as the target, how does the “log2 mean competition ratio” value read?
Answer: -0.501

Question: How did the “log2 mean competition ratio” value turn out when PPP2R2D C268 (UniProt Q66LE6) was run?
Answer: 0.0674

Question: For PRPF4 C342 (UniProt O43172), which “log2 mean competition ratio” value is on record?
Answer: -0.0106

Question: How did the “log2 mean competition ratio” value turn out when PPFIA1 C738 (UniProt Q13136) was run?
Answer: -0.226

Question: PRKCZ C107 (UniProt Q05513) was tested. Which “log2 mean competition ratio” value did it give?
Answer: 0.294

Same assay, conditions: 200 µM; treatment time: 4 h; cell line lysate: HEK293T

Question: With PRKDC C2244 (UniProt P78527) as the target, how does the “log2 mean competition ratio” value read?
Answer: -0.476

Question: For POP5 C146 (UniProt Q969H6), which “log2 mean competition ratio” value is on record?
Answer: 0.185

Question: Which “log2 mean competition ratio” value does the source give for PRPF38A C116 (UniProt Q8NAV1) here?
Answer: -0.128

Question: How did the “log2 mean competition ratio” value turn out when PRKRA C106 (UniProt O75569) was run?
Answer: -0.0549

Question: Which “log2 mean competition ratio” value does the source give for PRMT6 C221 (UniProt Q96LA8) here?
Answer: 0.443

Question: Which “log2 mean competition ratio” value does the source give for PPIL2 C387 (UniProt Q13356) here?
Answer: -0.188

Question: Which “log2 mean competition ratio” value does the source give for PRORP C367 (UniProt O15091) here?
Answer: -0.00736

Question: For PRDM16 C771, which “log2 mean competition ratio” value is on record?
Answer: 0.424

Question: For PRPF6 C339 (UniProt O94906), which “log2 mean competition ratio” value is on record?
Answer: 0.134

Question: PPP2R5A C359 (UniProt Q15172) was tested. Which “log2 mean competition ratio” value did it give?
Answer: -0.12

Question: How did the “log2 mean competition ratio” value turn out when PRKCD C208 (UniProt Q05655) was run?
Answer: -0.00616

Question: For PPP4R1 C663 (UniProt Q8TF05), which “log2 mean competition ratio” value is on record?
Answer: 0.414

Question: PRKDC C2435 (UniProt P78527) was tested. Which “log2 mean competition ratio” value did it give?
Answer: 0.0308

Question: For POLR2A C154, which “log2 mean competition ratio” value is on record?
Answer: 0.0604

Question: Which “log2 mean competition ratio” value does the source give for POLR2G C38 (UniProt P62487) here?
Answer: -0.0718

Question: How did the “log2 mean competition ratio” value turn out when PPM1G C351 (UniProt O15355) was run?
Answer: -0.0284

Question: PRR12 C417 (UniProt Q9ULL5) was tested. Which “log2 mean competition ratio” value did it give?
Answer: -0.223

Question: Which “log2 mean competition ratio” value does the source give for PORCN C375 (UniProt Q9H237) here?
Answer: 0.072

Question: Which “log2 mean competition ratio” value does the source give for PPP6R2 C665 (UniProt O75170) here?
Answer: 0.113

Question: Which “log2 mean competition ratio” value does the source give for POM121 C268 (UniProt Q96HA1) here?
Answer: 0.172

Question: Which “log2 mean competition ratio” value does the source give for PPIG C310 (UniProt Q13427) here?
Answer: -0.26

Question: With PPA2 C274 (UniProt Q9H2U2) as the target, how does the “log2 mean competition ratio” value read?
Answer: -0.293

Question: Which “log2 mean competition ratio” value does the source give for POLR3B C973 (UniProt Q9NW08) here?
Answer: 0.107

Question: For PRKDC C1742 (UniProt P78527), which “log2 mean competition ratio” value is on record?
Answer: -0.0446

Question: How did the “log2 mean competition ratio” value turn out when POM121 C307 (UniProt Q96HA1) was run?
Answer: 0.179

Question: How did the “log2 mean competition ratio” value turn out when POLR3A C1174 (UniProt O14802) was run?
Answer: -0.348

Question: How did the “log2 mean competition ratio” value turn out when POLR2M C115 was run?
Answer: -0.0157

Question: For PPIB C202 (UniProt P23284), which “log2 mean competition ratio” value is on record?
Answer: -0.0532

Question: With PRR14L C1027 (UniProt Q5THK1) as the target, how does the “log2 mean competition ratio” value read?
Answer: -0.213

Question: Which “log2 mean competition ratio” value does the source give for POLR3E C350 (UniProt Q9NVU0) here?
Answer: 0.0955

Question: For PRKCD C509 (UniProt Q05655), which “log2 mean competition ratio” value is on record?
Answer: -0.0639

Question: With POLR2A C1245 as the target, how does the “log2 mean competition ratio” value read?
Answer: 0.378

Question: For PPP2R2D C268 (UniProt Q66LE6), which “log2 mean competition ratio” value is on record?
Answer: -0.0978

Question: PRPF4 C342 (UniProt O43172) was tested. Which “log2 mean competition ratio” value did it give?
Answer: -0.0641

Question: How did the “log2 mean competition ratio” value turn out when PPFIA1 C738 (UniProt Q13136) was run?
Answer: -0.0171

Question: With PRKCZ C107 (UniProt Q05513) as the target, how does the “log2 mean competition ratio” value read?
Answer: -0.201
